Source: PMC11672294, “The Antipsychotic Drug Aripiprazole Suppresses Colorectal Cancer by Targeting LAMP2a to Induce RNH1/miR‐99a/mTOR‐Mediated Autophagy and Apoptosis” (Advanced Science, 2024)
Where a name gives a salt, the structure may show the parent alone. Only a part is listed here, and it is no random draw.

Each molecule was assayed on HT29. Details: 72 h, relative to DMSO; 10 µM.
Text: To investigate the key signaling pathways and biological processes involved in CRC progression, we analyzed the National Center for Biotechnology Information Gene Expression Omnibus (GEO) dataset GSE115313, which included 42 CRC and paired normal tissues (Figure 1A). […] Next, we performed an Annexin V‐fluorescein isothiocyanate (FITC)/propidium iodide (PI) staining assay to determine the effect of aripiprazole on apoptosis in CRC cells. […] A) Principal component analysis of GEO dataset (GSE115313), which includes 42 CRC and paired normal tissues. B) Gene Ontology pathway analysis of the DEPs between CRC and paired normal tissues. […] D) Schematic diagram for identifying anticancer drugs amongst an US Food and Drug Administration‐approved small‐molecule library (616 compounds) using WST‐1 assay. E) HT29 cells were treated with the 616 drugs (10 µM) individually or with dimethyl sulfoxide for 72 h, followed by WST‐1 assay. […] J) Mice bearing HT29‐derived tumor xenografts were intragastrically administered with aripiprazole (10 or 20 mg kg^−1) once every 2 d, n = 6 mice/group. […] Bars, SD; ^* p < 0.05; ^** p < 0.01; ^*** p < 0.001; ns, no significant difference. The WST‐1 Cell Proliferation and Cytotoxicity Assay Kit (Beyotime Biotechnology, Shanghai, China) was used to measure cell viability, as described previously.^[ [10] ^] CRC cells were seeded into 96‐well plates and treated with different drug concentrations. Following that, WST‐1 was added to the plate and incubated with the cells for 2 h, at 37 °C. Absorbance at the wavelength of 450 nm was measured using an automated microplate spectrophotometer (BioTek Instruments, Winooski, VT, USA).

Compound | Relative cell viability (%) [%]
CC(C)NC[C@@H](O)COc1ccc(CC(N)=O)cc1 [(R)-(+)-Atenolol] | 59.39
CC(C)c1c(C(=O)Nc2ccccc2)c(-c2ccccc2)c(-c2ccc(F)cc2)n1CC[C@@H](O)C[C@@H](O)CC(=O)O [Atorvastatin Calcium] | 113.8
CN1[C@@H]2CC[C@H]1C[C@@H](OC(=O)C(CO)c1ccccc1)C2 (stereo partly shown) [Atropine] | 116.1
O=C(O)COCCN1CCN(C(c2ccccc2)c2ccc(Cl)cc2)CC1 (stereo not shown) [Cetirizine DiHCl] | 68.07
CN(C)CCOC(c1ccccc1)c1ccccc1 [Diphenhydramine HCl] | 105.9
CCN(CC)CC(=O)Nc1c(C)cccc1C [Lidocaine] | 96.11
Cc1cc(NS(=O)(=O)c2ccc(N)cc2)no1 [Sulfamethoxazole] | 138.2
